Assay results as given in publication PMC7990198.
No constants are given. Whether binding was seen depends on the method and setting. Binding calls can cover weak binding; strength is not graded here. Sequences can lack the tags named with a protein.

The substances below were run against T1, Full-length Sds21 fused to the Gal4 BD (S. pombe) (UniProt P23880) (assay: two-hybrid; Gal4 AD fusions of Ppn1 (pACT2.1) with Gal4 BD fusions of Dis2, Swd22 or Sds21 (pAS2-1) in S. cerevisiae Y190; two reporters: lacZ (X-gal filter lift, 30°C, up to 6 h) and histidine prototrophy (growth on -trp-leu-his + 50 mM 3AT)).
T1 sequence: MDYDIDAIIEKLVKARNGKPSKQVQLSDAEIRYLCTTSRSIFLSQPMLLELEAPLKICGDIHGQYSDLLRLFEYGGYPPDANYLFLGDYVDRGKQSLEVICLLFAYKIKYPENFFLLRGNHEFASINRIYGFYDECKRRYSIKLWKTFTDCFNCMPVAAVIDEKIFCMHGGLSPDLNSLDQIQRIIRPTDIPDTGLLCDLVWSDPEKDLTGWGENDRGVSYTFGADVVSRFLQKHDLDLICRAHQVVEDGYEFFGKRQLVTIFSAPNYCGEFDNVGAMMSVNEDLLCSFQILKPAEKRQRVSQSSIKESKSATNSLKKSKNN

Question: For “Full-length AD-Ppn1 D515A-L516A double-mutant (S. pombe)”, which binding is on record?
Answer: binds

Question: For “Full-length AD-Ppn1 S507D-S509D double-mutation (S. pombe)”, which binding is on record?
Answer: no binding

Question: For Full-length AD-Ppn1 V508A (S. pombe), which binding is on record?
Answer: no binding

Question: How did the binding turn out when Full-length AD-Ppn1 W510A (S. pombe) was run?
Answer: no binding

Question: For “Full-length Ppn1 (aa 1–710) fused to the Gal4 AD (S. pombe)”, which binding is on record?
Answer: binds
